The assay addresses T1, E. coli TwinStrep-FtsK 1-222 (E. coli) (UniProt P46889).
T1 sequence: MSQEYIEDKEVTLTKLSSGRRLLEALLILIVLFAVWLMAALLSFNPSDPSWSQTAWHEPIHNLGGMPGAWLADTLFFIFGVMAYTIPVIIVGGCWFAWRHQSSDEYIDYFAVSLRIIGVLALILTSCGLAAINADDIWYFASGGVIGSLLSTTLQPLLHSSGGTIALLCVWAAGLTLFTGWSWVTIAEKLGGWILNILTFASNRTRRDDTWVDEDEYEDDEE
The experiment in a line: co-purification.

Chains of the proteins cited; added tags and fusions are not shown. Lines headed by an entry give the natural chain unless they say otherwise; changes in a name come on top.
UniProt P06136: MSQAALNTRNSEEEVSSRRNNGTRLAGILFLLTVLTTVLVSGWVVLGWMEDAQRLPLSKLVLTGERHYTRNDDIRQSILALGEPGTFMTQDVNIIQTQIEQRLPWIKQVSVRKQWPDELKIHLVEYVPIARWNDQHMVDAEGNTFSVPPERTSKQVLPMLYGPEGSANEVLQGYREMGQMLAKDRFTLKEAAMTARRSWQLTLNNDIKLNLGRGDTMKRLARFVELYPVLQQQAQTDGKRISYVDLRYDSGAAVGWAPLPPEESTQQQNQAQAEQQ

Results are given in words; binding and its absence hold for the method and conditions named. Binding seen in cells or lysates may run through a third protein. A result given as binding can be weak or reduced; the word gives no strength.

E. coli FtsQ-His6 (from UniProt P06136): the binding result is listed as “binds”.

Values taken from paper doi:10.1101/2022.11.21.517367.
